# According to the supplement of paper PMC12823440, “Inhibitors supercharge kinase turnover through native proteolytic circuits” (Nature, 2025):
# Sequences of proteins named here, by UniProt entry; tags and fusion partners are left off. A change or cut given only in a name is not applied to a line headed by its entry.
# UniProt O15530: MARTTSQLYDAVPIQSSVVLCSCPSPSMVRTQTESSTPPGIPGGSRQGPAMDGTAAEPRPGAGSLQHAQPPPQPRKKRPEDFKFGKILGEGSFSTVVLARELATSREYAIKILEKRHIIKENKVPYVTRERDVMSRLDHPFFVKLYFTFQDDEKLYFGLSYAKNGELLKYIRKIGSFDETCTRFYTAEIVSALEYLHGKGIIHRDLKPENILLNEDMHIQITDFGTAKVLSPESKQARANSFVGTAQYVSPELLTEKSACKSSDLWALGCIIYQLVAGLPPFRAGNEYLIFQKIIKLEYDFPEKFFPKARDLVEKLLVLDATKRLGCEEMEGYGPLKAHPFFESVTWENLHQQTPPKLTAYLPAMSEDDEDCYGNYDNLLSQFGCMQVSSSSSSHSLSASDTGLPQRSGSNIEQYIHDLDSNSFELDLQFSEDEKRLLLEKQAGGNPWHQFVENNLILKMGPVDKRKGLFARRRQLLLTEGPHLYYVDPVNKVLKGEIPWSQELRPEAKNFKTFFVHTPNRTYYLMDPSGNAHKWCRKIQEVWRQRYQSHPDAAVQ
# UniProt P42356, whole entry, looked up: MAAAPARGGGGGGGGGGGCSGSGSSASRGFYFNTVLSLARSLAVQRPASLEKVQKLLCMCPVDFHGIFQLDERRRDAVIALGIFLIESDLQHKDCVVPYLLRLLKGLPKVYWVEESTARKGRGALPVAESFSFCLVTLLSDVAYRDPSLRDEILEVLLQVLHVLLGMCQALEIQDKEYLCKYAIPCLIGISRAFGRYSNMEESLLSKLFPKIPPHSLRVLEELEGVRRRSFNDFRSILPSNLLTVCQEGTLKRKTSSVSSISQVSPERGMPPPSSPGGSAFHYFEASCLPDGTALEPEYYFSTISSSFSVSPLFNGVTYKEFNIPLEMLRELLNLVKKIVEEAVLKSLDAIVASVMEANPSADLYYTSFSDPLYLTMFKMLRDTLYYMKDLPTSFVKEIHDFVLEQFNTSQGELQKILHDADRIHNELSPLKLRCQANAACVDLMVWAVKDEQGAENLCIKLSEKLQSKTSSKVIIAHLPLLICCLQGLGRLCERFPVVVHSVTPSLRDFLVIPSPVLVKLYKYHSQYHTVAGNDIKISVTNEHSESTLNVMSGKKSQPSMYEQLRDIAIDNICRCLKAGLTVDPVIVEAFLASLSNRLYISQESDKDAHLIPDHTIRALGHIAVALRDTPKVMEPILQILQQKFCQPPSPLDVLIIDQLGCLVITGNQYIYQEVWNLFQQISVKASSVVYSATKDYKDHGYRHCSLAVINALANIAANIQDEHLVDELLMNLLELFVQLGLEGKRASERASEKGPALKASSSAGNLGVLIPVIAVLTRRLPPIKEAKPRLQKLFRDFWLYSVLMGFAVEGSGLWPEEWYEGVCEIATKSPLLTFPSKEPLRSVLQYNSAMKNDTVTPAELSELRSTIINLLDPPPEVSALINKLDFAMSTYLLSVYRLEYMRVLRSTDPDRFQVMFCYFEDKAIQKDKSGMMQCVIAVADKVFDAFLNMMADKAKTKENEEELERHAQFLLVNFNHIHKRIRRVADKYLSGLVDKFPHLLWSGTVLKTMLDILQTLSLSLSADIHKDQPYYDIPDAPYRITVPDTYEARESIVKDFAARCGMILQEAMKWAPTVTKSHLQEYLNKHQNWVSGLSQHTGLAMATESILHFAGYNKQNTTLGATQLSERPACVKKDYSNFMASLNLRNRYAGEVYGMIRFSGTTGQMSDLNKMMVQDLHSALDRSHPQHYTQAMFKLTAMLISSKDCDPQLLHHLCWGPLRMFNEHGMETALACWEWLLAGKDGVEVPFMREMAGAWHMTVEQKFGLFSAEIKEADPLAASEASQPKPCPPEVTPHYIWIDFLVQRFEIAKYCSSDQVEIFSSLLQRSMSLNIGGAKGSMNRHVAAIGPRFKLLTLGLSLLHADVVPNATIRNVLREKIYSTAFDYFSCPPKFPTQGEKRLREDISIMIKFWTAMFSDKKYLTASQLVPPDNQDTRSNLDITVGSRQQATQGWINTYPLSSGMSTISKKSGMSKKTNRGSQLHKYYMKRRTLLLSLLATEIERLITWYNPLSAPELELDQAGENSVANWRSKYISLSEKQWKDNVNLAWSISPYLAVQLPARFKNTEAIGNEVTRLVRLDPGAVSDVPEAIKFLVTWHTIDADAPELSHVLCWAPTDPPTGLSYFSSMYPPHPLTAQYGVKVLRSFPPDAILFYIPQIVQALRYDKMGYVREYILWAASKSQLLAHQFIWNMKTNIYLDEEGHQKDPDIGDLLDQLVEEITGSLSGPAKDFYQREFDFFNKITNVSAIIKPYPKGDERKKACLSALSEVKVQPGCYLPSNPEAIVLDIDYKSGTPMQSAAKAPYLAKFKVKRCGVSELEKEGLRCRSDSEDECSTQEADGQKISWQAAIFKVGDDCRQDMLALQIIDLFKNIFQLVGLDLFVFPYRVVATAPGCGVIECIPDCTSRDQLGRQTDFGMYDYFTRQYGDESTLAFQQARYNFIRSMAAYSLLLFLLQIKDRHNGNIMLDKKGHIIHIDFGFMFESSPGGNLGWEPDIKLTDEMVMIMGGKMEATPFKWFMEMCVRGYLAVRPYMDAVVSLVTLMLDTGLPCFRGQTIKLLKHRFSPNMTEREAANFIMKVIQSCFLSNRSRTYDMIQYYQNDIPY
# UniProt Q9UBF8: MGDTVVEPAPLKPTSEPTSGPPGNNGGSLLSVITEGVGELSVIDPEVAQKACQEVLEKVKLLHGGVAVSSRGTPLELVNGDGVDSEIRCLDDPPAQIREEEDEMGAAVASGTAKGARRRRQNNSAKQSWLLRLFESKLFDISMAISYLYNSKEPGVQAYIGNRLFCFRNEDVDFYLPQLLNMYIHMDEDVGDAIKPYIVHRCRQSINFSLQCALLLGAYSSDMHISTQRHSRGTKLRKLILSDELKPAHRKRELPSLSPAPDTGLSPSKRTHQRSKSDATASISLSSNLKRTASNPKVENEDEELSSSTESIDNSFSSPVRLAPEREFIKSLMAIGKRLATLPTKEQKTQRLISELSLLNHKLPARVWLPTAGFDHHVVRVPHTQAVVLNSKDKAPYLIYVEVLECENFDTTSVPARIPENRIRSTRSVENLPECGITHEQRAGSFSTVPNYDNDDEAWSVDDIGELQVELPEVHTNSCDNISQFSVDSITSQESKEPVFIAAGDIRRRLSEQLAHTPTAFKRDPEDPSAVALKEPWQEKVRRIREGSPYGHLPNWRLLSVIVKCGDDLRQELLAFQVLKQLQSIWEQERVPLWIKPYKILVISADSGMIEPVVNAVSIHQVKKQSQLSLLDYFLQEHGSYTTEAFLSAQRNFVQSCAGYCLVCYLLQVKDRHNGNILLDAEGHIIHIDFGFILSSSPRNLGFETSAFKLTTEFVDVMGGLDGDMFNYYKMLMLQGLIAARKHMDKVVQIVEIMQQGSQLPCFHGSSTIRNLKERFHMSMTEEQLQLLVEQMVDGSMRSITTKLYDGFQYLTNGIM
# UniProt P53350, whole entry: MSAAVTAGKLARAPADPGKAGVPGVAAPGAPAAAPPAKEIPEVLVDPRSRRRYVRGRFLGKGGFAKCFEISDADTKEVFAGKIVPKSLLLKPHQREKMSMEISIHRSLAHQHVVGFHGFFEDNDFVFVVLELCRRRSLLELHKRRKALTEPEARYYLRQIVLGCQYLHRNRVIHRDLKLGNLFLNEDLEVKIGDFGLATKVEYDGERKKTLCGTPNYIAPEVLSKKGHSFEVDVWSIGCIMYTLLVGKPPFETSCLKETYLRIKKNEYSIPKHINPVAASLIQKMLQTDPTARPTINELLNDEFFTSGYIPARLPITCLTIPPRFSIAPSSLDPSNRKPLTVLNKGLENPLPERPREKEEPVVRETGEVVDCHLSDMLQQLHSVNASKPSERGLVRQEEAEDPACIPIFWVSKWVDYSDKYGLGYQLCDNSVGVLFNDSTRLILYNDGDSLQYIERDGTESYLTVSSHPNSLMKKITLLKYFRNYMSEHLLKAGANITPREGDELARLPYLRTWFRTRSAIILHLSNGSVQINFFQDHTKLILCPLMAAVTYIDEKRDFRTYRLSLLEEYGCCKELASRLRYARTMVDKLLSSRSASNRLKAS
# UniProt Q13131: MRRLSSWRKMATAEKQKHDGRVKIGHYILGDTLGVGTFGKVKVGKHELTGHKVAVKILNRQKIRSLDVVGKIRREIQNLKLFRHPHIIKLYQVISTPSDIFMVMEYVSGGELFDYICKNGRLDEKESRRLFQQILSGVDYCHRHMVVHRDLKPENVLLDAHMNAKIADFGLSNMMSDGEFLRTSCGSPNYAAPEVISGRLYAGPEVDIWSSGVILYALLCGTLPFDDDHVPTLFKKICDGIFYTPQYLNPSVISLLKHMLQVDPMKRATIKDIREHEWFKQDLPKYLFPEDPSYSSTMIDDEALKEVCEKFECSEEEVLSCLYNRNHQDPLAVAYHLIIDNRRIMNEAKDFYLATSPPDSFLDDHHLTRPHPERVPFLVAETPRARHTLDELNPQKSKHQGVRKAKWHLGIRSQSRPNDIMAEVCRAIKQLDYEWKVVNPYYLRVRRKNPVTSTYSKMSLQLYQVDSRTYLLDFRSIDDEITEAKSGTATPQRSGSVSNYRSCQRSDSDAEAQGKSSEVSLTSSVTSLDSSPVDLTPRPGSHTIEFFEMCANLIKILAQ
# UniProt Q14289, whole entry, looked up: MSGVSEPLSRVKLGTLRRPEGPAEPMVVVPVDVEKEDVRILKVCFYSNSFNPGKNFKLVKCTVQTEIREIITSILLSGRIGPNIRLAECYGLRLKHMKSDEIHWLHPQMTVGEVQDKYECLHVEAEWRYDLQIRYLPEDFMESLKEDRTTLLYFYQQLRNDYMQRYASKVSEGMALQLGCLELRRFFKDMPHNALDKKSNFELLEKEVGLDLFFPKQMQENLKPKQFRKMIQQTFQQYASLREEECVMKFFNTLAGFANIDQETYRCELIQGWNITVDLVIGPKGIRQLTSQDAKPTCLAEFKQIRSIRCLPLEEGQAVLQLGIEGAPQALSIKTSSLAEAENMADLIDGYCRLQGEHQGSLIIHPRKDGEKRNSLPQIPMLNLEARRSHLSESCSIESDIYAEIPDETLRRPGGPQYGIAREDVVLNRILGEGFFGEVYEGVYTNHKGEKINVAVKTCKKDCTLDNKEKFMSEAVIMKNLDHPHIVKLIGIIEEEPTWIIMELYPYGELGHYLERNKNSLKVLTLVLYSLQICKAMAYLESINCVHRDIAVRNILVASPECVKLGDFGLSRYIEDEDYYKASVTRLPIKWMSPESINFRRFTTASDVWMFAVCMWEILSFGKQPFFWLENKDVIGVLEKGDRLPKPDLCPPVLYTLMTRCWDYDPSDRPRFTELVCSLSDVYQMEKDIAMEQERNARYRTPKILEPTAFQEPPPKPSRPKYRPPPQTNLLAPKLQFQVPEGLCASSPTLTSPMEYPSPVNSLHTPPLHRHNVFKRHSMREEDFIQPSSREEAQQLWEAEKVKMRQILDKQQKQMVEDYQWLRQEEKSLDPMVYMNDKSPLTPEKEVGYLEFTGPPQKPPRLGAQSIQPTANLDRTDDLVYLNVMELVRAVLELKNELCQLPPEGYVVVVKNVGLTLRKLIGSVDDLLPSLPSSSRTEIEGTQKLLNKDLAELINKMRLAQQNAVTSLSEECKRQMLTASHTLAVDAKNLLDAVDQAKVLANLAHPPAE
# Counter-ions that a name gives are not always drawn. The list shows a part of the results. The calls rarely recur for the same compound in another form.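 In K562 cells expressing nanoluciferase-fused kinases, luminescence was recorded at 4 h intervals between 2 and 18 h, normalized as percent of control with DMSO at 100% and a positive control at 0%. A significant (2 sigma) signal drop marks a time point as decreased. The authors' rule for a hit is not shown and takes in more than the number of time points.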
# Key:
# Assay in all cases: kinase-Nluc reporter destabilization hit call (1 = scored as downregulated) (binary); higher = compound decreases kinase abundance
# Settings in all cases: K562; 2-18 h
# PDPK1 = PDPK1 (UniProt O15530)
# PIK4CA = PIK4CA (UniProt P42356)
# PIK4CB = PIK4CB (UniProt Q9UBF8)
# PLK1 = PLK1 (UniProt P53350)
# PRKAA1 = PRKAA1 (UniProt Q13131)
# PRKCA = PRKCA (UniProt P17252)
# PTK2 = PTK2 (UniProt Q05397)
# PTK2B = PTK2B (UniProt Q14289)
# RAF1 = RAF1 (UniProt P04049)
# [1] = biological target: RAF1_S257L (clone: RAF1_mut) (UniProt P04049)
SMILES,kinase-Nluc reporter destabilization hit call (PDPK1),kinase-Nluc reporter destabilization hit call (PIK4CA),kinase-Nluc reporter destabilization hit call (PIK4CB),kinase-Nluc reporter destabilization hit call (PLK1),kinase-Nluc reporter destabilization hit call (PRKAA1),kinase-Nluc reporter destabilization hit call (PRKCA),kinase-Nluc reporter destabilization hit call (PTK2),kinase-Nluc reporter destabilization hit call (PTK2B),kinase-Nluc reporter destabilization hit call (RAF1),kinase-Nluc reporter destabilization hit call [1]
CC1C(=O)OC2C(O)C34C5OC(=O)C3(OC3OC(=O)C(O)C34C(C(C)(C)C)C5O)C12O (stereo unspecified) [Ginkgolide C] (10 µM),inactive: 0,inactive: 0,inactive: 0,inactive: 0,inactive: 0,inactive: 0,inactive: 0,inactive: 0,inactive: 0,inactive: 0
O=[N+]([O-])/C=C/c1ccc2c(c1)OCO2 (2.5 µM),inactive: 0,inactive: 0,inactive: 0,inactive: 0,inactive: 0,inactive: 0,inactive: 0,inactive: 0,inactive: 0,inactive: 0
N#CC(C#N)=Cc1ccc([N+](=O)[O-])c(O)c1 (10 µM),inactive: 0,inactive: 0,inactive: 0,inactive: 0,inactive: 0,inactive: 0,inactive: 0,inactive: 0,inactive: 0,inactive: 0
Cn1cc(C2=C(c3cn(C4CCN(Cc5ccccn5)CC4)c4ccccc34)C(=O)NC2=O)c2ccccc21 [Enzastaurin] (10 µM),inactive: 0,inactive: 0,inactive: 0,inactive: 0,inactive: 0,inactive: 0,inactive: 0,inactive: 0,inactive: 0,inactive: 0
O=c1[nH]c2ccccc2n1C1CCN(Cc2ccc(-c3[nH]c4cc5ncnc5cc4nc3-c3ccccc3)cc2)CC1 [AKT inhibitor VIII] (2.5 µM),inactive: 0,inactive: 0,inactive: 0,inactive: 0,inactive: 0,inactive: 0,inactive: 0,inactive: 0,inactive: 0,inactive: 0
COc1ccc2c(c1)/C(=C/c1cnc[nH]1)C(=O)N2 (2.5 µM),inactive: 0,inactive: 0,inactive: 0,inactive: 0,inactive: 0,inactive: 0,inactive: 0,–,inactive: 0,inactive: 0
C=CC(=O)N[C@H]1C=C(C)c2c(-c3cnc4ccccc4c3)c3c(N)ncnc3n2C1 (10 µM),inactive: 0,inactive: 0,inactive: 0,inactive: 0,inactive: 0,inactive: 0,inactive: 0,inactive: 0,inactive: 0,inactive: 0
Cc1n[nH]cc1-c1cc2nc([C@@H]3CC4CCN3CC4)[nH]c(=O)c2s1 [Simurosertib] (2.5 µM),inactive: 0,inactive: 0,inactive: 0,inactive: 0,inactive: 0,inactive: 0,inactive: 0,inactive: 0,inactive: 0,inactive: 0
O=c1cc(O)c2ccccc2o1 [4-Hydroxycoumarin] (10 µM),inactive: 0,inactive: 0,inactive: 0,inactive: 0,inactive: 0,inactive: 0,inactive: 0,inactive: 0,inactive: 0,inactive: 0
COC[C@H]1OC(=O)c2coc3c2[C@@]1(C)C1=C(C3=O)[C@@H]2CCC(=O)[C@@]2(C)C[C@H]1OC(C)=O [Wortmannin] (2.5 µM),inactive: 0,inactive: 0,inactive: 0,–,inactive: 0,inactive: 0,inactive: 0,inactive: 0,inactive: 0,inactive: 0
O=Cc1cn(Cc2ccc(Cl)cc2)c2ccccc12 [Oncrasin-1] (10 µM),inactive: 0,inactive: 0,inactive: 0,inactive: 0,inactive: 0,inactive: 0,inactive: 0,inactive: 0,inactive: 0,inactive: 0
O=C(O)c1nn(Cc2ccc(Cl)cc2Cl)c2ccccc12 [Lonidamine] (10 µM),inactive: 0,inactive: 0,inactive: 0,inactive: 0,inactive: 0,inactive: 0,inactive: 0,inactive: 0,inactive: 0,inactive: 0
C=CC(=O)Nc1ccc2[nH]c(=O)n(C3CCN(Cc4ccc(-c5nc6cc[nH]c(=O)c6cc5-c5ccccc5)cc4)CC3)c2c1 [Borussertib] (10 µM),inactive: 0,inactive: 0,inactive: 0,inactive: 0,inactive: 0,inactive: 0,inactive: 0,inactive: 0,inactive: 0,inactive: 0
C/C(O)=C(\C#N)C(=O)Nc1cc(Br)ccc1Br (10 µM),inactive: 0,inactive: 0,inactive: 0,inactive: 0,inactive: 0,inactive: 0,inactive: 0,inactive: 0,inactive: 0,inactive: 0
O=C1c2ccccc2C(=O)c2c1cccc2-c1cnn(C2CCNCC2)c1 [PDK4-IN-1 (hydrochloride)] (10 µM),inactive: 0,inactive: 0,inactive: 0,inactive: 0,inactive: 0,inactive: 0,inactive: 0,inactive: 0,inactive: 0,inactive: 0
O=C(N[C@@H](COc1ccc2[nH]c(=O)[nH]c2c1)c1ccccc1)c1cccn(Cc2ccc(F)c(F)c2)c1=O (2.5 µM),–,inactive: 0,inactive: 0,inactive: 0,inactive: 0,inactive: 0,inactive: 0,inactive: 0,inactive: 0,inactive: 0
Cc1ccccc1-n1c(Cn2cnc3c(N)ncnc32)nc2cccc(C)c2c1=O (10 µM),inactive: 0,inactive: 0,inactive: 0,inactive: 0,inactive: 0,inactive: 0,inactive: 0,inactive: 0,inactive: 0,inactive: 0
O=c1[nH]c2ccccc2n1C1CCN(CCCC(c2ccc(F)cc2)c2ccc(F)cc2)CC1 [Pimozide] (2.5 µM),inactive: 0,inactive: 0,inactive: 0,inactive: 0,inactive: 0,inactive: 0,inactive: 0,inactive: 0,inactive: 0,inactive: 0
COc1ccc2c(c[n+](C)c3c4cc5c(cc4ccc23)OCO5)c1OC [Chelerythrine (chloride)] (10 µM),inactive: 0,inactive: 0,inactive: 0,inactive: 0,inactive: 0,inactive: 0,inactive: 0,inactive: 0,inactive: 0,inactive: 0
COc1ccc(/C=C/c2cc(OC)c(OC)c(OC)c2)cc1 (2.5 µM),inactive: 0,inactive: 0,inactive: 0,inactive: 0,inactive: 0,inactive: 0,inactive: 0,inactive: 0,inactive: 0,inactive: 0
N#CC(C#N)=Cc1ccc(O)c(O)c1 [Tyrphostin 23] (10 µM),inactive: 0,inactive: 0,inactive: 0,inactive: 0,inactive: 0,inactive: 0,inactive: 0,–,inactive: 0,inactive: 0
CCCS(=O)(=O)Nc1ccc(F)c(-n2cc(-c3cncnc3)c3nc(N(C)C4CCN(CC)CC4)ccc32)c1F (2 µM),inactive: 0,inactive: 0,inactive: 0,inactive: 0,inactive: 0,inactive: 0,inactive: 0,inactive: 0,inactive: 0,inactive: 0
Nc1ncnc2c1ncn2[C@@H]1O[C@@H]2COP(O)(=S)O[C@H]2[C@H]1O (stereo partly specified) [Sp-cAMPS (sodium salt)] (10 µM),inactive: 0,inactive: 0,inactive: 0,inactive: 0,inactive: 0,inactive: 0,inactive: 0,inactive: 0,inactive: 0,inactive: 0
CC(=O)O[C@H]1[C@H]2[C@@H](OC(=O)Cc3ccccc3)[C@@H](C)C[C@]2(OC(C)=O)C(=O)/C(C)=C/[C@@H]2[C@H](CC[C@@]13CO3)C2(C)C [Euphorbiasteroid] (10 µM),inactive: 0,inactive: 0,inactive: 0,inactive: 0,inactive: 0,inactive: 0,inactive: 0,inactive: 0,inactive: 0,inactive: 0
C[S+]([O-])/C=C/CCN=C=S (stereo unspecified) [Sulforaphene] (10 µM),inactive: 0,inactive: 0,inactive: 0,inactive: 0,inactive: 0,inactive: 0,inactive: 0,inactive: 0,inactive: 0,inactive: 0
N#CC(C#N)=NNc1cccc(Cl)c1 (2.5 µM),inactive: 0,inactive: 0,inactive: 0,inactive: 0,inactive: 0,inactive: 0,inactive: 0,inactive: 0,inactive: 0,inactive: 0
C[C@H](CCC(=O)O)C[C@H](C)C[C@H](C)C(=O)/C=C(\O)[C@H](C)C[C@H](C)C/C=C/[C@@H](C)[C@@H](O)[C@@H](C)[C@@H](O)C[C@@H]1CC[C@@](C)([C@H]2CC[C@@](C)([C@@H](C)O)O2)O1 [Ionomycin (calcium)] (2.5 µM),inactive: 0,inactive: 0,inactive: 0,inactive: 0,active: 1,inactive: 0,inactive: 0,inactive: 0,inactive: 0,inactive: 0
CC1=C[C@]23C(=O)[C@@H](C=C(CO)[C@@H](O)[C@]2(O)[C@H]1O)[C@H]1[C@@H](C[C@H]3C)C1(C)C [Ingenol] (10 µM),inactive: 0,inactive: 0,inactive: 0,inactive: 0,inactive: 0,inactive: 0,inactive: 0,inactive: 0,inactive: 0,inactive: 0
C[C@@H]1CC[C@H]2[C@@H](C)C(=O)O[C@@H]3O[C@@]4(C)CC[C@@H]1[C@]32OO4 [Artemisinin] (10 µM),inactive: 0,inactive: 0,inactive: 0,inactive: 0,inactive: 0,inactive: 0,inactive: 0,inactive: 0,inactive: 0,inactive: 0

# Quoted at random: 2 records from the list
SMILES,kinase-Nluc reporter destabilization hit call (PDPK1),kinase-Nluc reporter destabilization hit call (PIK4CA),kinase-Nluc reporter destabilization hit call (PIK4CB),kinase-Nluc reporter destabilization hit call (PLK1),kinase-Nluc reporter destabilization hit call (PRKAA1),kinase-Nluc reporter destabilization hit call (PRKCA),kinase-Nluc reporter destabilization hit call (PTK2),kinase-Nluc reporter destabilization hit call (PTK2B),kinase-Nluc reporter destabilization hit call (RAF1),kinase-Nluc reporter destabilization hit call [1]
N#CC(C#N)=NNc1cccc(Cl)c1 (2.5 µM),inactive: 0,inactive: 0,inactive: 0,inactive: 0,inactive: 0,inactive: 0,inactive: 0,inactive: 0,inactive: 0,inactive: 0
Cn1cc(C2=C(c3cn(C4CCN(Cc5ccccn5)CC4)c4ccccc34)C(=O)NC2=O)c2ccccc21 [Enzastaurin] (10 µM),inactive: 0,inactive: 0,inactive: 0,inactive: 0,inactive: 0,inactive: 0,inactive: 0,inactive: 0,inactive: 0,inactive: 0
